Record: PubChem BioAssay AID1259308 (NCATS, 2017)

- Aim: 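Knock-downs that increase output of a recombinant reporter protein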 (primary screen)
- System: human HEK293 embryonic kidney cells stably expressing firefly luciferase (HEK-CMV-Luc2-Hygro)
- Reagents: single siRNA against human genes, 0.8 pmol siRNA per well
- Timing: 72 h
- Detection: 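Luciferase light (ONE-Glo) measured on one replicate plate set and viability (CellTiter-Glo) on the other, scaled to a negative control siRNA, with robust z-scores and luciferase per cell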
- Scale: total luciferase, z-score: higher = more reporter protein produced
- Active means: 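An siRNA counts as active if its total luciferase robust z-score exceeds 3; genes with two or more such siRNAs out of three were retested with fresh siRNAs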
- Meaning of the calls: active = raised luciferase; inactive = no rise
In all, the deposit lists about 59,000 reagents; shown is a random part of them. About 1,510 of all reagents (2.6%) were called active. 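Calls use total luciferase alone and ignore viability, so some active siRNAs may act by altering cell number.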 The numbers tell different reagents against one gene apart. Further read-outs or replicates are left out here.

total luciferase, z-score, by gene symbol and reagent
FRAS1: #1 -0.178 inactive; #2 -1.63 inactive; #3 0.257 inactive
SEH1L: #1 -0.667 inactive; #2 -1.11 inactive; #3 -1.49 inactive
GABRR3: #1 -0.219 inactive; #2 -0.688 inactive; #3 -1.37 inactive

Entries above whose target name begins with F or f:
total luciferase, z-score, by gene symbol and reagent
FRAS1: #1 -0.178 inactive; #2 -1.63 inactive; #3 0.257 inactive

Next entries follow:
total luciferase, z-score, by gene symbol and reagent
INVS: #1 0.359 inactive; #2 1.2 inactive; #3 0.919 inactive
HOXC9: #1 -0.134 inactive; #2 -0.412 inactive; #3 0.278 inactive
TENT5B: #1 0.189 inactive; #2 0.0727 inactive; #3 0.538 inactive
ESYT3: #1 1.82 inactive; #2 -0.194 inactive; #3 -0.235 inactive
GADD45B: #1 -0.736 inactive; #2 -0.694 inactive; #3 -0.74 inactive
